Test results taken from publication PMC9519919.
These are yes or no findings as the source states them, for the method shown. Sequences can lack the tags named with a protein.

Biological target: Methylococcus capsulatus CYP51-ferredoxin fusion protein (sterol 14α-demethylase fused to a ferredoxin domain) (Methylococcus capsulatus) (UniProt Q603T8)
Assay: SEC; M. capsulatus CYP51-fx in solution; conditions not given; both purified

- binding: no binding
B1: Methylococcus capsulatus CYP51-ferredoxin fusion protein (sterol 14α-demethylase fused to a ferredoxin domain) (enzyme, UniProt Q603T8 1-551)
chain: MSHPPSNTPPVKPGGLPLLGHILEFGKNPHAFLMALRHEFGDVAEFRMFHQRMVLLTGSQASEAFYRAPDEVLDQGPAYRIMTPIFGRGVVFDARIERKNQQLQMLMPALRDKPMRTYSEIIVAEVEAMLRDWKDAGTIDLLELTKELTIYTSSHCLLGAEFRHELNTEFAGIYRDLEMGIQPIAYVFPNLPLPVFKRRDQARVRLQELVTQIMERRARSQERSTNVFQMLIDASYDDGSKLTPHEITGMLIATIFAGHHTSSGTTAWVLIELLRRPEYLRRVRAEIDALFETHGRVTFESLRQMPQLENVIKEVLRLHPPLILLMRKVMKDFEVQGMRIEAGKFVCAAPSVTHRIPELFPNPELFDPDRYTPERAEDKDLYGWQAFGGGRHKCSGNAFAMFQIKAIVCVLLRNYEFELAAAPESYRDDYRKMVVEPASPCLIRYRRRDAPAAVDAKASAGEAPAETLRGAFRVTVDRDLCKGHGNCMAEAPEIFRVDEDGRLTLLSETPDPVLVGAALAAERFCPARAIKILPQRDPATRDRSLSPSGED
